{
  "source": "PubChem BioAssay AID445",
  "about": "(National Center for Advancing Translational Sciences (NCATS), 2006)",
  "assay": "IkB Signaling",
  "details": "ABC-DLBCL IkBa-CBG/CBR dual luciferase ratio (green luciferase fused to IkBa over red control in OCI-Ly3 lymphoma cells), 4 h",
  "outline": "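In this assay, an IκBα–CBG68 fusion accumulates when IKK-driven degradation is blocked; native CBR normalizes for cell number. OCI-Ly3 cells were treated 4 h with compound and doxycycline, then green and red light read after Chroma-Glo addition.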",
  "key": {"[1]": {"details": "measured here: control luc red channel unless noted"}},
  "note": "Some of the results follow. The main result of the screen is listed elsewhere. These columns were measured beside it and carry no call. Compounds called inactive in the main read-out are mostly missing here. Words in brackets tell the shape of the fitted curve; partial curves, single points and poor fits give uncertain potencies.",
  "data": [
    {"molecule": "CN(C(=O)Cn1c(=O)n(CCCS(=O)(=O)C2CCCCC2)c(=O)c2ccccc21)c1ccccc1", "values": [
      {"measurement": "AC50", "setting": "[1]", "value": "39.8 µM [falling, single point]"}
    ]},
    {"molecule": "COc1ccccc1-c1nc(S(=O)(=O)c2ccc(Cl)cc2)c(N2CCCCCC2)o1", "values": [
      {"measurement": "AC50", "setting": "[1]", "value": "5.01 µM [falling, partial curve, poor fit]"}
    ]},
    {"molecule": "CCOc1cc(C2C(C(=O)OC)=C(C)NC3=C2C(=O)c2ccccc23)ccc1O", "note": "(stereo unspecified)", "values": [
      {"measurement": "AC50", "setting": "[1]", "value": "25.1 µM [falling, single point]"}
    ]},
    {"molecule": "CCc1ccc(-c2nn(CC(=O)NC3CCCC3)c3c2cnc2ccc(C)cc23)cc1", "values": [
      {"measurement": "AC50", "setting": "[1]", "value": "6.31 µM [rising, single point]"}
    ]},
    {"molecule": "Cc1cccc(/C=C/c2onc(C)c2S(=O)(=O)N2CCC(C(=O)N3CCC(C)CC3)CC2)c1", "values": [
      {"measurement": "AC50", "setting": "[1]", "value": "6.31 µM [rising, partial curve, poor fit]"}
    ]},
    {"molecule": "Cc1cccc(C)c1OCC(=O)NCC1(N2CCOCC2)CCCCC1", "values": [
      {"measurement": "AC50", "setting": "[1]", "value": "15.8 µM [falling, single point]"}
    ]},
    {"molecule": "COc1ccc(OC(=O)c2nc(SCc3ccc(C)cc3)ncc2Cl)cc1", "values": [
      {"measurement": "AC50", "setting": "[1]", "value": "0.0794 µM [rising, full curve]"}
    ]},
    {"molecule": "CC1CCCN(c2csc3ccc(F)cc3c2=O)C1", "note": "(stereo unspecified)", "values": [
      {"measurement": "AC50", "setting": "[1]", "value": "10 µM [falling, partial curve]"}
    ]},
    {"molecule": "CC1=Nc2ccccc2N=C(NC(=O)CSc2nnnn2-c2ccccc2)C1c1ccccc1", "note": "(stereo unspecified)", "values": [
      {"measurement": "AC50", "setting": "[1]", "value": "15.8 µM [falling, partial curve]"}
    ]},
    {"molecule": "CCCOc1ccc(C(=O)Nc2cccc(-c3nc4ccccc4[nH]3)c2)cc1", "values": [
      {"measurement": "AC50", "setting": "[1]", "value": "12.6 µM [falling, partial curve]"}
    ]},
    {"molecule": "Cc1ccc(-c2nc(C)c(CCNC(=O)C(=O)Nc3ccc4c(c3)OCCO4)s2)cc1", "values": [
      {"measurement": "AC50", "setting": "[1]", "value": "0.794 µM [rising, full curve]"}
    ]},
    {"molecule": "CC(C)C(=O)NC(c1ccco1)c1ccc2cccnc2c1O", "note": "(stereo unspecified)", "values": [
      {"measurement": "AC50", "setting": "[1]", "value": "3.98 µM [falling, partial curve]"}
    ]},
    {"molecule": "CCOc1ccc(N(CC(=O)Nc2ccc(F)cc2F)S(=O)(=O)c2c(C)[nH]c(=O)[nH]c2=O)cc1", "values": [
      {"measurement": "AC50", "setting": "[1]", "value": "15.8 µM [falling, partial curve]"}
    ]},
    {"molecule": "CN1C(=O)c2ccccc2Sc2ccc(NC(=O)Nc3ccccc3F)cc21", "values": [
      {"measurement": "AC50", "setting": "[1]", "value": "7.94 µM [falling, partial curve]"}
    ]},
    {"molecule": "Fc1ccc(-c2cc3nc(-c4ccccc4)cc(N4CCOCC4)n3n2)cc1", "values": [
      {"measurement": "AC50", "setting": "[1]", "value": "12.6 µM [falling, partial curve]"}
    ]},
    {"molecule": "COc1ccc(CNC(=O)C(=O)NCC(c2cccs2)S(=O)(=O)c2ccc(F)cc2)cc1", "note": "(stereo unspecified)", "values": [
      {"measurement": "AC50", "setting": "[1]", "value": "25.1 µM [falling, single point]"}
    ]},
    {"molecule": "CCOCCCn1c(=N)c(S(=O)(=O)c2ccc(C)cc2)cc2c(=O)n3cccc(C)c3nc21", "values": [
      {"measurement": "AC50", "setting": "[1]", "value": "0.398 µM [rising, full curve]"}
    ]},
    {"molecule": "COc1ccc(CN(CCC(c2ccc3c(c2)OCO3)c2ccccc2OC)C(C)=O)cc1", "note": "(stereo unspecified)", "values": [
      {"measurement": "AC50", "setting": "[1]", "value": "25.1 µM [falling, single point]"}
    ]},
    {"molecule": "O=C(NCC(c1ccc2c(c1)OCO2)N1CCN(c2ccccc2)CC1)c1ccccc1F", "note": "(stereo unspecified)", "values": [
      {"measurement": "AC50", "setting": "[1]", "value": "39.8 µM [falling, single point]"}
    ]},
    {"molecule": "COc1ccccc1OCC(=O)N(Cc1nc(-c2ccc(Cl)cc2)no1)C(C)C", "values": [
      {"measurement": "AC50", "setting": "[1]", "value": "12.6 µM [falling, partial curve]"}
    ]},
    {"molecule": "CCOC(=O)c1ccc(OCC2c3cc(OC)c(OC)cc3CCN2C(=O)Cc2ccc(F)cc2)cc1", "note": "(stereo unspecified)", "values": [
      {"measurement": "AC50", "setting": "[1]", "value": "39.8 µM [falling, single point]"}
    ]},
    {"molecule": "Nc1cc(OC(=O)c2ccccc2Br)nn1S(=O)(=O)c1ccccc1", "values": [
      {"measurement": "AC50", "setting": "[1]", "value": "15.8 µM [falling, partial curve]"}
    ]},
    {"molecule": "O=C(NCc1ccco1)c1cc(-c2ccco2)on1", "values": [
      {"measurement": "AC50", "setting": "[1]", "value": "12.6 µM [falling, partial curve]"}
    ]},
    {"molecule": "Cc1ccc(CN2C(=O)c3ccccc3C2C(=O)NC2CCCCCC2)cc1", "note": "(stereo unspecified)", "values": [
      {"measurement": "AC50", "setting": "[1]", "value": "39.8 µM [falling, single point]"}
    ]},
    {"molecule": "O=C(Nc1cccc(C(=O)N2CCCCC2)c1)c1nsc2ccccc12", "values": [
      {"measurement": "AC50", "setting": "[1]", "value": "3.16 µM [rising, partial curve]"}
    ]},
    {"molecule": "Cc1cc(O)c(C(c2ccc(F)cc2)N2CCCCC2)c(=O)n1Cc1ccco1", "note": "(stereo unspecified)", "values": [
      {"measurement": "AC50", "setting": "[1]", "value": "39.8 µM [falling, single point]"}
    ]},
    {"molecule": "CCc1ccc(-n2nc(C)c3c(C(=O)Nc4cccc(C(F)(F)F)c4)cc(C)nc32)cc1", "values": [
      {"measurement": "AC50", "setting": "[1]", "value": "31.6 µM [falling, single point]"}
    ]},
    {"molecule": "Cc1cc(Nc2cccc(C(F)(F)F)c2)nc2ccc(NC(=O)c3ccc(N(C)C)cc3)cc12", "values": [
      {"measurement": "AC50", "setting": "[1]", "value": "15.8 µM [falling, partial curve]"}
    ]},
    {"molecule": "CCOc1ccccc1NC(=O)c1c(C)cc(C)nc1SCC(=O)c1cccc(OC)c1", "values": [
      {"measurement": "AC50", "setting": "[1]", "value": "20 µM [falling, partial curve, poor fit]"}
    ]},
    {"molecule": "CCOC(=O)CSc1nnc(CNc2ccc(F)cc2)o1", "values": [
      {"measurement": "AC50", "setting": "[1]", "value": "10 µM [falling, partial curve]"}
    ]},
    {"molecule": "Cc1cccc(C)c1Nc1c(-c2ccsc2)nc2ccccn12", "values": [
      {"measurement": "AC50", "setting": "[1]", "value": "15.8 µM [falling, partial curve]"}
    ]},
    {"molecule": "Clc1ccc2c(c1)C1OCCC1C(c1ccco1)N2", "note": "(stereo unspecified)", "values": [
      {"measurement": "AC50", "setting": "measured here: IkB-luc green channel", "value": "39.8 µM [falling, single point]"},
      {"measurement": "AC50", "setting": "measured here: control luc red channel", "value": "20 µM [falling, partial curve]"}
    ]},
    {"molecule": "COc1ccc(OC)c(N=Cc2c(O)[nH]c3ccccc23)c1", "values": [
      {"measurement": "AC50", "setting": "[1]", "value": "0.158 µM [falling, full curve, poor fit]"}
    ]},
    {"molecule": "O=C(CN1CCN(c2ccc(Cl)cc2)CC1)Nc1ccc(F)cc1F", "values": [
      {"measurement": "AC50", "setting": "[1]", "value": "1.58 µM [falling, full curve]"}
    ]},
    {"molecule": "COC(=O)Cn1c(=O)c2c(nc3n2CCN3c2cccc(C)c2)n(C)c1=O", "values": [
      {"measurement": "AC50", "setting": "[1]", "value": "25.1 µM [falling, partial curve]"}
    ]},
    {"molecule": "COC(=O)c1ccc(C(=O)OC)c(NC(=O)CN2CCN(c3ccccc3OC)CC2)c1", "values": [
      {"measurement": "AC50", "setting": "[1]", "value": "31.6 µM [falling, partial curve]"}
    ]},
    {"molecule": "Nc1ccc(-c2cnc(-c3ccc(N)cc3)nc2)cc1", "values": [
      {"measurement": "AC50", "setting": "[1]", "value": "25.1 µM [falling, partial curve]"}
    ]},
    {"molecule": "COc1ccc2nc3sc(C(=O)Nc4ccccc4F)cc3cc2c1", "values": [
      {"measurement": "AC50", "setting": "[1]", "value": "25.1 µM [falling, partial curve]"}
    ]},
    {"molecule": "CCN(CC)S(=O)(=O)c1ccc(NC(=O)[C@H](CSCc2ccccc2)N2Cc3ccccc3C2=O)cc1", "values": [
      {"measurement": "AC50", "setting": "[1]", "value": "1 µM [rising, full curve]"}
    ]},
    {"molecule": "O=S(=O)(NCCc1ccccc1)c1ccc(N2CCCCS2(=O)=O)cc1", "values": [
      {"measurement": "AC50", "setting": "[1]", "value": "20 µM [falling, partial curve]"}
    ]}
  ]
}
